Library screen at single concentrations

Amino acid sequences for entries named in this document (tags omitted). Residues count along the entry.
UniProt Q8IDJ8, 1-583: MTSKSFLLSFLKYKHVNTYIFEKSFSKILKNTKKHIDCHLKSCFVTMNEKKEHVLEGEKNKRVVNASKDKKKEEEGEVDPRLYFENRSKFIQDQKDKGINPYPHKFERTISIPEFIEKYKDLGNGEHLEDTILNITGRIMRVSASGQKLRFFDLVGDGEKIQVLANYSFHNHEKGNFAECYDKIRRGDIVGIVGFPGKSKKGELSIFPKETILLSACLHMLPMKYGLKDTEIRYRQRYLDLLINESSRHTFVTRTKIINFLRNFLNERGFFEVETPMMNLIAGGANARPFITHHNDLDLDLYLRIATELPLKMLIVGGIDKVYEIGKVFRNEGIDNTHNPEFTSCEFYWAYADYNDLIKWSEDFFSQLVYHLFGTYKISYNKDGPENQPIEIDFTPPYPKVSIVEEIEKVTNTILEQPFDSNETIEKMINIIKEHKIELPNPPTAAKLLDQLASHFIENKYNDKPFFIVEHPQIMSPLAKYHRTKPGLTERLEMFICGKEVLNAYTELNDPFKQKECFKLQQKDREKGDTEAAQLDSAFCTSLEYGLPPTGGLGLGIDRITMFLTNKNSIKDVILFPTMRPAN
UniProt P9WFT3, whole entry: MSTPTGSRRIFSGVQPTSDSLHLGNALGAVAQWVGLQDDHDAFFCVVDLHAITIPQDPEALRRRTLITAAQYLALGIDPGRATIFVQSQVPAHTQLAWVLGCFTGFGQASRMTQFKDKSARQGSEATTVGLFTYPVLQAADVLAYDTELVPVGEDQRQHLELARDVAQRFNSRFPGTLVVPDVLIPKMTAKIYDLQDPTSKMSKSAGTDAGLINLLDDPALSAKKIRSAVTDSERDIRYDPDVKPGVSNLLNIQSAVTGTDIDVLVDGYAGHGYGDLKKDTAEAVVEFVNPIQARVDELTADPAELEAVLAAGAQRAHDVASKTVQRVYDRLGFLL

PfKRS1: 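Lysine-tRNA ligase, Plasmodium falciparum 3D7 (UniProt Q8IDJ8). Enzyme assay of the cytosolic lysyl-tRNA synthetase in 384-well plates, read by luminescence. Concentration: 30 µM. Higher reads as stronger inhibition, judged from the few compounds that gave an IC50. About 69,000 compounds were tested under these conditions; 0.071% (about 49) showed 50% or more at least once.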
MtTrpRS: 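Enzyme assay of tryptophanyl-tRNA synthetase; the read-out is not stated. Target: Tryptophan-tRNA ligase, Mycobacterium tuberculosis (UniProt P9WFT3). Tested at 10 µM. Higher most likely means stronger inhibition; the record gives no direction and few retests gave an IC50. Size under these conditions: about 65,000 compounds, about 64 of them at 50% or above in at least one test.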

The filed quantity is “Percent Effect” (%).
The record does not define 0% and 100%; most values in the screen are far below 50% and negative numbers occur (in some assays of this library far below -100).
The compounds are a random part of those screened.

CNC(=O)N1CCCCC1c1nnc2n1CCCC2 (stereo not given) gave PfKRS1: 5.29%; MtTrpRS: -0.06456%. CN(C)C(=O)CN1CCCc2c(F)cc(Br)cc21 read PfKRS1: 2.434%; MtTrpRS: -1.481%. OCC1(Cc2ccc(Cl)cc2)CCN(Cc2ccccc2O)CC1 read PfKRS1: 0.9593%; MtTrpRS: -0.7647%. Cc1nc(C2CCCN2Cc2nc(C)c(C)o2)no1 (stereo not given) read PfKRS1: -0.3488%; MtTrpRS: -0.8746%. With Cc1ncc(CN(C)C(=O)Nc2cccc(C(=O)N3CCOCC3)c2)s1 the screen gave PfKRS1: 3.724%; MtTrpRS: -3.199%. Cc1nc(C)c(C(=O)Nc2cnn(CC(=O)NC3CCCC3)c2)s1 gave PfKRS1: 2.696%. Result for Cc1c[nH]c(C2COCCN2S(=O)(=O)c2cn[nH]c2)n1 (stereo not given) was PfKRS1: -0.5926%; MtTrpRS: 0.1569%. CC1C(=O)Nc2cccnc2N1S(=O)(=O)c1cc(F)cc(F)c1 (stereo not given) read PfKRS1: -1.955%; MtTrpRS: 8.424%.

c1ccc(N2CCOC3(CCCN(c4nncs4)C3)C2)nc1 (stereo not given) read PfKRS1: 1.617%; MtTrpRS: -9.592%. CNc1nc(C(=O)N2CCCN(c3ccnc(C)c3)CC2)cs1 gave PfKRS1: -2.235%; MtTrpRS: -4.542%. With Cc1ccc(C)c2c(O)cc(CNCC(=O)N3CCCC3)nc12 the screen gave PfKRS1: -0.8165%; MtTrpRS: 0.3734%. With CC(CN(C)C)Nc1nc(O)cc(Cc2ccccc2F)n1 (stereo not given) the screen gave PfKRS1: 0.0743%; MtTrpRS: -5.657%. Result for CC(C)Cc1nc(OCC(N)=O)c(C#N)c2c1CCCC2 was PfKRS1: 2.7%; MtTrpRS: 1.765%. With CCc1cnc(N)nc1NCCCn1cc(Cl)cn1 the screen gave PfKRS1: 1.856%; MtTrpRS: -5.178%. CNc1nc(C(=O)NCc2cccnc2N(C)C)cs1 gave PfKRS1: 3.392%; MtTrpRS: 7.152%. Cc1cc(C[S+]([O-])CC(=O)NCc2cccc(Cl)c2)no1 (stereo not given) gave PfKRS1: 0.5591%; MtTrpRS: 0.4868%.

COc1cccc(C(C(=O)O)N2CCCN(C3CCCC3)CC2)c1OC (stereo not given) read PfKRS1: -5.408%; MtTrpRS: -6.256%. Result for O=C1COc2ccc(S(=O)(=O)NCC3CCCO3)c3c2N1CCC3 (stereo not given) was PfKRS1: -0.5656%; MtTrpRS: 0.552%. Result for Cc1csc([C@@H]2C[C@@H]3CCN(C(=O)c4cnccn4)C[C@H]3O2)n1 was PfKRS1: -2.945%; MtTrpRS: 3.745%. With Cn1ncc2c(NC3CCCN(C(=O)C4CC4)C3)nc(C(C)(C)C)nc21 (stereo not given) the screen gave PfKRS1: -3.577%; MtTrpRS: -5.788%. CCOCC(=O)N1C[C@H]2CCC[C@@]2(COC)C1 gave PfKRS1: 4.475%. Cc1nc(CCCNC(=O)Nc2ccc(F)cc2F)n[nH]1 gave PfKRS1: 4.191%; MtTrpRS: 3.6%. With Cc1cncc(C(=O)N2CCC(Cn3cc(-c4ccsc4)nn3)CC2)c1 the screen gave PfKRS1: 6.267%; MtTrpRS: -1.78%. For Nc1nc2c(c(NCC(c3cccnc3)N3CCOCC3)n1)CCCC2 (stereo not given) the result was PfKRS1: 3.433%; MtTrpRS: -0.9889%.

With Cn1cc(-c2nc(C(=O)N3CCCC3c3cnn(C)c3)cs2)cn1 (stereo not given) the screen gave PfKRS1: 7.225%; MtTrpRS: 4.649%.

2 of the entries, repeated:

* Cc1ncc(CN(C)C(=O)Nc2cccc(C(=O)N3CCOCC3)c2)s1 : PfKRS1: 3.724%; MtTrpRS: -3.199%
* CN(C)C(=O)CN1CCCc2c(F)cc(Br)cc21 : PfKRS1: 2.434%; MtTrpRS: -1.481%

Source: ChEMBL document CHEMBL3988442, “University of Dundee, Small-Polar-MMV Screening Library” (2021).